# Data from patent US20020173036A1, “Cell line and method of making and using same” (priority 2001, published 2002).
# For at least one compound, name, drawing or mass did not settle the structure.
# Assays:
# HL-60 cells = settings: retinoic acid-induced differentiation of HL-60 cells; cited from earlier work
# CAC-1 cells = experiment: Growth curve; assay type: cell-based, human; settings: 1 μM all-trans or 13-cis, retreated every third day
# human myeloid cells = settings: after differentiation of human myeloid cells; cited from earlier work
# RL95-2 cells = settings: cited from earlier work
structure (smiles),measurement,setting,value
CC1=C(/C=C/C(C)=C/C=C/C(C)=C/C(=O)O)C(C)(C)CCC1 [retinoic acid],increase of F-actin content above undifferentiated (control) cells,HL-60 cells,41%
same,cell growth compared to controls,CAC-1 cells,slight lag in growth
same,increase of F-actin content above controls,human myeloid cells,86-96%
same,detached cells relative to controls,RL95-2 cells,one-half
